Values from PubChem BioAssay AID1508588 (Peter MacCallum Cancer Centre, 2020).
This is one part, drawn at random, of about 18,000 deposited reagents. In the full data, 790 (4.4%) got an active call. 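Calls rest on a combination of fold-change classes in drug and vehicle arms, not all shown here.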 Unmarked entries are inactive.

Purpose: 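Knock-downs boosting vemurafenib effects on melanoma cell growth or lactate release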 (primary screen)
Cell system: human WM266.4 melanoma cells (BRAF V600 mutant)
Reagents: siRNA pool against human genes, 40 nM
Duration: 96 h from transfection to read-out
Conditions: vemurafenib 300 nM (about IC25), added 48 h after transfection, for 48 h; comparison arm got DMSO vehicle only
Read-out: 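Ratios to non-targeting siRNA for cell gain, counted as DAPI nuclei after minus before drug and averaged over two replicates, and for absorbance-read medium lactate per cell; both binned into fold-change classes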
Scale: cell gain with vemurafenib: higher = more cell gain than with non-targeting siRNA; lactate per cell with vemurafenib: higher = more lactate made per cell
Active means: 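Enhancement is called by pairing each knock-down's vehicle-arm and drug-arm fold-change classes for viability or glycolysis; which class combinations qualify is not given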
Meaning of the calls: active = enhances vemurafenib effect; inactive = no enhancement seen

| gene knocked down | cell gain with vemurafenib | lactate per cell with vemurafenib |
| --- | --- | --- |
| SP140 | 0.58 | 1.05 |
| ABHD4 | 0.37 | 0.64 |
| CD82 | 0.82 | 0.8 |
| AARS2 | 0.5 | 0.49 |
| PLP1 | 0.89 | 0.56 |
| RNF214 | 0.91 | 0.68 |
| PLAC4 | 0.45 | 1.76 |
| SPATC1L | 0.31 | 1.08 |
| PLAAT5 | 0.65 | 0.94 |
| HEPACAM | 0.36 | 0.94 |
| OR10C1 | 0.43 | 1.23 |
| NRBP1 | 0.42 | 1.46 |
| GPHB5 | 0.67 | 0.4 |
| LINC03042 | 0.92 | 1.37 |
| DAPL1 | 0.69 | 0.5 |
| SH2D4B | 0.9 | 0.96 |
| MRPL13 | 0.46 | 0.72 |
| POLR1G | 0.32 | 1.25 |
| SPINK9 | 0.83 | 1 |
| TFR2 | 0.71 | 0.47 |
| PHACTR4 | 0.92 | 0.78 |
| DECR2 | 0.91 | 0.96 |
| LRRC7 | 1.11 | 0.92 |
| SCGB1D1 | 0.11 | 1.44 |
| ACAN | 0.41 | 0.6 |
| HTN1 | 0.26 | 0.9 |
| ZNF660 | 0.85 | 0.94 |
| OR51B6 | 0.73 | 1.45 |
| CIZ1 | 0.79 | 1.08 |
| NR2F1 | 1.26 | 0.77 |
| VAT1L | 0.26 | 1.27 |
| WWC1 | 0.52 | 0.88 |
| EGR4 | 0.56 | 1.55 |
| RIT1 | 0.63 | 1.11 |
| PRODH2 | 1.36 | 0.8 |
| PC | 0.44 | 0.96 |
| GPR87 | 0.31 | 0.8 |
| MBIP | -0.12 | 0.37 |

Entries listed so far whose gene name begins with D or d:
| gene knocked down | cell gain with vemurafenib | lactate per cell with vemurafenib |
| --- | --- | --- |
| DAPL1 | 0.69 | 0.5 |
| DECR2 | 0.91 | 0.96 |

The listing continues:
| gene knocked down | cell gain with vemurafenib | lactate per cell with vemurafenib |
| --- | --- | --- |
| TEPSIN | 1.12 | 0.53 |
| KIF6 | 0.3 | 1.45 |
| NPHS2 | 0.69 | 0.52 |
| NRAS | 0.79 | 1.06 |
| AWAT2 | 0.12 | 1.25 |
| ZBTB49 | 0.8 | 0.54 |
| ERC1 | 0.29 | 1.58 |
| SST | 1.02 | 0.56 |
| PROM1 | 0.35 | 1.17 |
| U2AF1L4 | 0.35 | 0.84 |
| RUFY2 | 0.57 | 1.39 |
| ARID4A | 0.38 | 0.97 |
| USP53 | 0.48 | 0.66 |
| CCDC198 | -0.11 | 0.88 |
| FADD | 0.97 | 0.7 |
| IMPDH2 | 0.57 | 0.62 |
| GDF7 | 0.56 | 0.7 |
| MMP14 | 0.45 | 1 |
| KLK15 | 0.54 | 0.86 |
